Test results taken from PubChem BioAssay (NCATS).
This is one part of the list. Further columns of the screen follow, without active or inactive calls. Most of these compounds were active or inconclusive in the main read-out, so they are no random draw. The note in brackets gives the kind of curve behind each potency; many fits are weak.

Test: qHTS Assay for Inhibitors of PDE-IV (AID 607)
Conditions: HEK293 ACTOne CNG channel cells, membrane potential fluorescence; measured here: parental cell counter-screen
Procedure, shortened: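 ACTOne HEK293 cells carry a modified cAMP-gated CNG channel and express endogenous PDE4; plated 1000 cells/well, compounds up to 22.9 uM final. Membrane-potential dye fluorescence (ex 535/em 590) was read; parental cells received 10 uM forskolin + 100 uM RO 20-1724.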

Compound | AC50
CCCC[C@H]1C[C@@H]1[C@@H]1N(P(=O)(c2ccccc2)c2ccccc2)C[C@@](O)(c2ccccc2)CC12CC2 | 3.98 µM [rising, single point]
CCCC[C@@H]1C[C@H]1C(NC(=O)c1ccccc1)c1ccc(Cl)cc1 (some centres undefined) | 5.01 µM [rising, partial curve]
O=C(c1ccco1)N1CCC[C@@]2(CCN(c3ccccn3)C2)C1 | 0.631 µM [rising, single point]
COC(=O)[C@H]1C[C@@H]1[C@H](NS(=O)(=O)c1ccc(-c2ccccc2)cc1)c1ccccc1 | 10 µM [rising, single point]
O=C(O)/C=C1\CCCc2ccccc2[C@H]1O | 20 µM [rising, single point]
OC[C@H](CCc1c[nH]c2ccccc12)c1c[nH]c2ccccc12 | 2 µM [falling, partial curve]
CCC/C=C(\CCC)C(NP(=O)(c1ccccc1)c1ccccc1)c1ccc(C(F)(F)F)cc1 (centres undefined) | 3.98 µM [rising, full curve, poor fit]
C[C@@H](C(=O)Nc1ccc2ccccc2c1)[C@@H]1C[C@@]1(C)[C@@H](NC(=O)c1ccccc1)c1ccccc1 | 0.631 µM [rising, single point]
CCCC[C@@H]1C[C@H]1C(NC(=O)c1ccccc1)c1ccc(C(=O)OC)cc1 (some centres undefined) | 6.31 µM [rising, partial curve]
CC(=O)N1CCC2(CCN(Cc3ccncc3)CC2)CC1 | 3.98 µM [rising, single point]
CC(CCC(=O)O)(c1cc(Br)c(O)c(Br)c1)c1cc(Br)c(O)c(Br)c1 | 3.98 µM [rising, single point]
COc1ccc(NC(=O)N2CC3(CCN(C(=O)c4c(C)noc4C)CC3)C2)cc1 | 3.98 µM [rising, single point]
Cc1noc(C)c1C(=O)N1CCC2(CCCN(Cc3nccs3)C2)CC1 | 3.98 µM [rising, single point]
Cc1cccc(CNc2ncnc3ccc(-c4ccc5c(c4)OCO5)cc23)c1 | 10 µM [rising, single point]

Pulled one by one from the list above:
Compound | AC50
Cc1cccc(CNc2ncnc3ccc(-c4ccc5c(c4)OCO5)cc23)c1 | 10 µM [rising, single point]
COC(=O)[C@H]1C[C@@H]1[C@H](NS(=O)(=O)c1ccc(-c2ccccc2)cc1)c1ccccc1 | 10 µM [rising, single point]
